Source: patent US20240034804A1 (BIORAY PHARMACEUTICAL, published 2024)
No constants are given. Whether binding was seen depends on the method and setting. Some entries that bind do so weakly or less than the wild type.

By UniProt entry, the sequences of proteins in these tests, tags left out. Where a name states a change or a piece, a line headed by the entry shows the natural chain unless it says otherwise. Chains listed by the source or under a name are the forms on record and can include a tag or linker.
biotin-labeled SIRPα (V2) (Acrobiosystems, Cat. No. SI2-H82W8) (P78324, form named): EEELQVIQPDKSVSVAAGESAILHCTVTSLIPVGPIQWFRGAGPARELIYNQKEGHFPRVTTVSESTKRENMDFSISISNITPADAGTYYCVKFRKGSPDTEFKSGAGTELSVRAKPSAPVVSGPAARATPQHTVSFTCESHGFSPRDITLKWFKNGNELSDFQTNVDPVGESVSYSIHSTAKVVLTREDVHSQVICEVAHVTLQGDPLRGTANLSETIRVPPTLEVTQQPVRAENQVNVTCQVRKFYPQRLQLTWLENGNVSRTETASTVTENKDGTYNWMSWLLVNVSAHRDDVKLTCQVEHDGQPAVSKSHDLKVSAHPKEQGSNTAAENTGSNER
biotin-labeled SIRPα (V8) (Acrobiosystems, Cat. No. SI8-H82W6) (P78324, form named): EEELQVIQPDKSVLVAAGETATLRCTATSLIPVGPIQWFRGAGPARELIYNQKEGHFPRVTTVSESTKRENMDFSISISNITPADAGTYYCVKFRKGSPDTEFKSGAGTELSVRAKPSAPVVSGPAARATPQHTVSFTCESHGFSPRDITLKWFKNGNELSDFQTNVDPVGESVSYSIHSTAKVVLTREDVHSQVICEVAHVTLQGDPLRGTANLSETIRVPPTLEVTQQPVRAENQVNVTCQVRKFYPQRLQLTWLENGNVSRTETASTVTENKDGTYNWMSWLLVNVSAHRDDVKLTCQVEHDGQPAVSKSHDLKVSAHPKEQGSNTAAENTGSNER

How the values were obtained:
[1] = molecular target: biotin-labeled SIRPα (V2) (Acrobiosystems, Cat. No. SI2-H82W8) (human) (UniProt P78324); assay: competition ELISA: coated CD47-Fc, biotin-labeled SIRPα (V2) plus antibody dilutions, HRP-streptavidin, OD450
[2] = molecular target: biotin-labeled SIRPα (V8) (Acrobiosystems, Cat. No. SI8-H82W6) (human) (UniProt P78324); assay: competition ELISA: coated CD47-Fc, biotin-labeled SIRPα (V8) plus antibody dilutions, HRP-streptavidin, OD450

binding [1]: binds | binding [2]: binds
B1: #14 antibody (humanized anti-SIRPα antibody) (antibody, human IgG1, kappa, N297A, V domains shown)
VH: QVQLQESGPGLVKPSQTLSLTCTVSGGSISSGYYWSWIRQHPGKGLEWIGYISYDGSRYNNPSLKNRVTISVDTSKNQFSLKLSSVTAADTAVYYCAREEYANYFAYWGQGTTVTVSS
VL: DIVMTQSPDSLAVSLGERATINCKSSQSLFYSSNQKNFLAWYQQKPGQPPKLLIYWASTRESGVPDRFTGSGSGTDFTLTISSVKAEDLAVYYCQQYYSYPPTFGQGTKLEIKR
